# Laboratory results reported in PMC11334333.
# No constants are given. Whether binding was seen depends on the method and setting. In cells and extracts the contact can be indirect. For some assays here: Binding can be weak; no strength is given. Where a sequence is shown, tags or fusion partners need not be part of it.
# Tests used:
# Mem-mCherry-4.1G(CTD) = assay: co-IP; extracts of co-transfected HEK293 cells in IP Lysis/Wash Buffer (0.025 M Tris, 0.15 M NaCl, 0.001 M EDTA, 1% NP40, 5% glycerol, pH 7.4); RFP-Trap (anti-mCherry) magnetic agarose beads overnight at 4°C; blots with anti-GFP and anti-mCherry
# mCherry-4.1G(ΔCTD) = assay: as above
binder,measurement,setting,value
"TMEM24-eGFP (protein, UniProt O14523 1-706) MDPGWGQRDVGWAALLILFAASLLTVFAWLLQYARGLWLARARGDRGPGPALAGEPAGSLRELGVWRSLLRLRATRAGAAEEPGVRGLLASLFAFKSFRENWQRAWVRALNEQACRNGSSIQIAFEEVPQLPPRASISHVTCVDQSEHTMVLRCQLSAEEVRFPVSVTQQSPAAVSMETYHVTLTLPPTQLEVNLEEIPGEGLLISWAFTDRPDLSLTVLPKLQARERGEEQVELSTIEELIKDAIVSTQPAMMVNLRACSAPGGLVPSEKPPMMPQAQPAIPRPNRLFLRQLRASHLGNELEGTEELCCVAELDNPMQQKWTKPARAGSEVEWTEDLALDLGPQSRELTLKVLRSSSCGDTELLGQATLPVGSPSRPLSRRQLCPLTPGPGKALGPAATMAVELHYEEGSPRNLGTPTSSTPRPSITPTKKIELDRTIMPDGTIVTTVTTVQSRPRIDGKLDSPSRSPSKVEVTEKTTTVLSESSGPSNTSHSSSRDSHLSNGLDPVAETAIRQLTEPSGRVAKKTPTKRSTLIISGVSKVPIAQDELALSLGYAASLEASVQDDAGTSGGPSSPPSDPPAMSPGPLDALSSPTSVQEADETTRSDISERPSVDDIESETGSTGALETRSLKDHKVSFLRSGTKLIFRRRPRQKEAGLSQSHDDLSNATATPSVRKKAGSFSRRLIKRFSFKSKPKANGNPSPQL",binding,Mem-mCherry-4.1G(CTD),binds
same,binding,mCherry-4.1G(ΔCTD),no binding
